Assay results: PubChem BioAssay AID504444 (National Center for Advancing Translational Sciences (NCATS), 2011)
Screen size: about 360,000 compounds; about 7,500 (2.1%) were called active. The shares of active, inactive and inconclusive entries below differ from those in the screen. Calls come from the whole dose curve; as a rule, active = well fitted inhibition curve with a large enough effect; inconclusive = small, poorly fitted or top-dose-only effect, or effect the other way; inactive = flat fitted curve, though single readings scatter. Potencies of inconclusive entries are doubtful fits and often do not repeat. The source holds several records for some structures; these can differ, active in one and inactive in another.

test: Nrf2 qHTS screen for inhibitors; conditions: A549 ARE-Fluc reporter, luciferase luminescence, 18-24 h; series mostly up to 46 µM; note: nearly all actives have a fitted effect of over 60% in size
Summary of the method: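 Nrf2 activity is the BugLite luminescence, read 15 min after reagent at room temperature, following CellTiter-Fluor cytotoxicity readout (30 min, 37C). Compound titrations were applied for 18-24 h to 5000 A549 ARE_Fluc cells/well in 5% FBS OPTI-MEM.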
Potency is the fitted concentration of half-maximal effect.

| Structure (SMILES) | Potency |
| --- | --- |
| Cn1c(=O)oc2cc(S(=O)(=O)NC(CC(=O)O)c3cccc(Br)c3)ccc21 (centres undefined) | inactive |
| Cc1c(C(=O)Nc2ccccn2)sc2nc3n(c(=O)c12)CCC3 | inconclusive: 0.517 µM [activator, full curve, poor fit] |
| CN(C)c1cc(N/N=C\c2ccccc2)nc(N(C)C)n1 | inconclusive: 2.31 µM [falling, single point] |
| COC(=O)NCC(c1cccnc1)N1CCOCC1 (centres undefined) | inconclusive: 1.84 µM [falling, partial curve, poor fit] |
| CCc1ccc(NC(=O)Cn2c(=O)c3cccn3c3ccccc32)cc1 | active: 23.1 µM |
| CC(C)(C)SCCNC(=O)c1ccc(Cl)c(S(=O)(=O)N2CCOCC2)c1 | inconclusive: 16.4 µM [falling, partial curve, poor fit] |
| O=C(Nc1ccc(-c2nc3cc(Cl)ccc3o2)cc1)c1cc(Br)ccc1Cl | inactive |
| COc1cc2c(cc1NC(=O)C(C)OC(=O)/C=C/c1ccc(OC(F)F)cc1)oc1ccccc12 (centres undefined) | inconclusive: 13 µM [activator, partial curve] |
| O=C(CCNc1ccc(F)cc1)c1cccc([N+](=O)[O-])c1 | inactive |
| COC(=O)C1=C(C)NC(=O)NC1c1ccc2ccccc2c1 (centres undefined) | inconclusive: 9.2 µM [falling, partial curve] |
| Cc1cccc(NC(=O)CCn2cnnn2)c1 | inconclusive: 14.6 µM [activator, partial curve] |
| Cc1cc(NC(=O)c2ccccc2)ccc1NC(=O)c1ccccc1Cl | inconclusive: 20.6 µM [activator, partial curve, poor fit] |
| CCCCCn1c(=O)[nH]c2cc(C(=O)O)ccc2c1=O | inactive |
| Cc1ccccc1/C=C(\C#N)c1nc(-c2ccc(Cl)cc2)cs1 | inconclusive: 32.6 µM [activator, single point] |
| COc1cc2c(C)nc(C)c(C#N)c2cc1OC | inconclusive: 2.06 µM [falling, partial curve, poor fit] |
| CN(C(=O)c1ccc2c(Cl)c3c(nc2c1)CCC3)c1ccccc1F | inactive |
| COc1ccc(CCCC(=O)NCCc2ccccc2)cc1 | inconclusive: 0.0517 µM [falling, full curve, poor fit] |
| CCN(CC)C(=O)Cn1c(=O)n(-c2ccccc2)c(=O)c2c3c(sc21)CCC3 | inconclusive: 16.4 µM [activator, partial curve, poor fit] |
| OC1(c2cccc(C(F)(F)F)c2)CCN(Cc2nnnn2Cc2ccccc2)CC1 | inconclusive: 11.6 µM [activator, partial curve] |

Some of the entries so far, comma-delimited:
Structure (SMILES),Potency
CN(C(=O)c1ccc2c(Cl)c3c(nc2c1)CCC3)c1ccccc1F,inactive
COc1ccc(CCCC(=O)NCCc2ccccc2)cc1,"inconclusive: 0.0517 µM [falling, full curve, poor fit]"
CCN(CC)C(=O)Cn1c(=O)n(-c2ccccc2)c(=O)c2c3c(sc21)CCC3,"inconclusive: 16.4 µM [activator, partial curve, poor fit]"
OC1(c2cccc(C(F)(F)F)c2)CCN(Cc2nnnn2Cc2ccccc2)CC1,"inconclusive: 11.6 µM [activator, partial curve]"
